# Laboratory results taken from PubChem BioAssay AID1487 (National Center for Advancing Translational Sciences (NCATS), 2009).
# Values joined by “and” are separate entries in the source; they are usually repeats but may differ in a detail not shown here. Equal values may be shown once. The list shows a part of the results. Further columns of the screen follow, without active or inactive calls. The list favours compounds with an active or inconclusive main result. Potencies come from curve fits of mixed quality, noted in brackets.
# Assay: qHTS Assay for Modulators of Lamin A Splicing
# Settings: HeLa LMNA splicing GFP/RFP minigene ratio, 48 h
# Procedure, shortened: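 Read-out is the ratio of GFP to DsRed2 object intensity, acquired by 488 nm laser-scanning cytometry on HeLa lamin A-EGFP minigene reporter cells. Compound incubation 48 hrs at 37 °C in Opti-MEM with 2% FBS; DMSO 0.5% final.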
# [1] = measured here: RFP viability control channel
# [2] = measured here: GFP splicing reporter channel
compound,measurement,setting,value
COc1ccccc1NC(=O)CCNC(=O)Cn1ccc2ccccc2c1=O,AC50,[1],"0.891 µM [falling, partial curve]"
COc1cc2c(cc1OC)C(c1ccc(-c3ccc(Cl)c(Cl)c3)o1)=NCC2,AC50,[2],"4.47 µM [rising, single point]"
same,AC50,[1],"14.1 µM [falling, single point]"
CCCN(CCC)S(=O)(=O)c1ccc(C(=O)N2CCC(=O)c3ccccc32)cc1,AC50,[2],"10 µM [rising, partial curve]"
same,AC50,[1],"14.1 µM [rising, single point]"
O=C(Nc1nnc(-c2ccc3c(c2)CCCC3)o1)C1COc2ccccc2O1 (configuration not stated),AC50,[1],"35.5 µM [rising, single point]"
Brc1cccc(-c2nnc(SCc3nc4ccccc4[nH]3)o2)c1,AC50,[2],"7.94 µM [rising, partial curve]"
same,AC50,[1],"11.2 µM [rising, partial curve]"
O=S(=O)(NCCc1ccccc1F)c1cccc(S(=O)(=O)N2CCOCC2)c1,AC50,[1],"15.8 µM [rising, single point]"
S=c1[nH]nc(COc2ccccc2)n1/N=C/C(Cl)=C/c1ccccc1,AC50,[2],"0.0316 µM [falling, single point]"
same,AC50,[1],"0.0316 µM [falling, single point]"
O=[N+]([O-])c1cccc2ccc(/C=C/c3ccc(C(F)(F)F)cc3)nc12,AC50,[2],"12.6 µM [rising, single point]"
same,AC50,[1],"25.1 µM [rising, partial curve]"
CN(C)c1nc(NCc2ccccc2)nc(SCC(=O)Nc2ccccc2Cl)n1,AC50,[2],"11.2 µM [rising, single point]"
same,AC50,[1],"20 µM [rising, partial curve]"
c1ccc(CNc2ccnc(-c3cccnc3)n2)cc1,AC50,[2],"35.5 µM [falling, single point]"
CCc1ccc(CCC(=O)Nc2ccccc2C(=O)O)o1,AC50,[2],"15.8 µM [falling, single point]"
[O-]/C(=C(\C(=S)NCCN1CCOCC1)[n+]1ccccc1)c1ccc(Cl)s1,AC50,[1],"35.5 µM [rising, partial curve, poor fit]"
O=C(Oc1c(CN2CCOCC2)cc(Cl)c2cccnc12)c1ccccc1Cl,AC50,[2],"5.62 µM [falling, full curve]"
same,AC50,[1],"5.01 µM [falling, full curve]"
CC(=Nc1ccc(O)cc1)c1sc2ccccc2c1O,AC50,[1],"14.1 µM [rising, partial curve]"
COc1ccc(C(=O)COC(=O)c2ccc(N(C)C)cc2)cc1,AC50,[2],"0.0126 µM [rising, full curve, poor fit]"
COc1ccc(C(=O)Nc2ccc3c(c2)CCCN3S(=O)(=O)c2ccc(C)cc2)cc1,AC50,[2],"5.62 µM [rising, partial curve, poor fit]"
COc1cc2cc3c(N)c(C(=O)NCc4ccco4)sc3nc2cc1OC,AC50,[1],"17.8 µM [rising, partial curve, poor fit]"
CC(C)c1ccc(C(=O)Nc2ccc(N3CCOCC3)cc2)cc1,AC50,[2],"35.5 µM [rising, single point]"
same,AC50,[1],"35.5 µM [rising, single point]"
O=C(Nc1cccc(F)c1)c1sc(Cl)nc1-c1ccccc1,AC50,[1],"35.5 µM [rising, single point]"
O=C(Cn1nc(-c2ccccc2)ccc1=O)Nc1ccc(N2CCN(C(=O)c3cccs3)CC2)cc1,AC50,[2],"1.41 µM [falling, partial curve]"
same,AC50,[1],"3.55 µM [falling, partial curve, poor fit]"
N#Cc1c2ccc(O)cc2n2ccccc12,AC50,[2],"5.01 µM [falling, full curve, poor fit]"
Cc1cccc(C)c1NC(=O)N1CCN(c2nc3ccccc3s2)CC1,AC50,[1],"8.91 µM [rising, partial curve]"
O=C(c1noc2c1CCCC2)N1CCOCC1,AC50,[1],"0.631 µM [rising, full curve, poor fit]"
CC1=C(\C=C/C(C)=C/C=C\C(C)=C\C(=O)O)C(C)(C)CCC1,AC50,[2],"1.78 µM [falling, partial curve, poor fit] and 251 nM [falling, full curve]"
same,AC50,[1],"0.282 µM [falling, full curve, poor fit]"
CCOc1ccc(C(=O)N/N=C/c2cc([N+](=O)[O-])cs2)cc1,AC50,[2],"0.0224 µM [rising, full curve, poor fit]"
same,AC50,[1],"0.02 µM [rising, full curve, poor fit]"
CCCn1c(N2CCN(C(=O)Nc3ccccc3)CC2)nc2ccccc21,AC50,[2],"0.02 µM [rising, full curve, poor fit]"
COCc1cc(=O)[nH]c(Nc2nc3ccccc3o2)n1,AC50,[1],"25.1 µM [rising, single point]"
COC(=O)c1[nH]c2cc(OC)c(OC)cc2c1NC(=O)c1cccc(OC)c1,AC50,[1],"0.355 µM [falling, partial curve]"
CCOc1ccc(CN(C(=O)c2cc3ccccc3oc2=O)C2CC2)cc1,AC50,[1],"14.1 µM [rising, single point]"
Fc1ccc(Cn2ccc(-c3cnc(-c4ccccc4)s3)n2)cc1,AC50,[2],"20 µM [rising, partial curve, poor fit]"
same,AC50,[1],"20 µM [rising, single point]"
CC1(c2ccccc2Cl)NC(=O)N(CC(=O)NCCC2=CCCCC2)C1=O (configuration not stated),AC50,[1],"11.2 µM [rising, partial curve, poor fit]"
O=S1(=O)C=C(Sc2nc3cc(Cl)ccc3o2)c2ccccc21,AC50,[1],"5.62 µM [rising, single point]"
COc1ccc(S(=O)(=O)N2CCN(C(=O)c3cc(-c4ccc(Br)cc4)n[nH]3)CC2)cc1OC,AC50,[2],"0.562 µM [falling, full curve]"
CN(c1ccccc1C(=O)NCc1ccccn1)S(C)(=O)=O,AC50,[2],"11.2 µM [falling, partial curve]"
O=C(COc1ncnc2ccccc12)Nc1ccc(Cl)c([N+](=O)[O-])c1,AC50,[1],"11.2 µM [rising, partial curve]"
CCOC(=O)C1C(=O)C=C(c2ccc(C)cc2)CC1c1cccc([N+](=O)[O-])c1 (configuration not stated),AC50,[1],"15.8 µM [rising, partial curve]"
CCOc1ccc(CSC(=N)N)cc1[N+](=O)[O-],AC50,[1],"17.8 µM [rising, single point]"
Cc1ccsc1CNn1cnnc1SCc1ccc(Cl)cc1,AC50,[1],"17.8 µM [rising, single point]"
O=C(/C=C/c1ccc(Br)cc1)NC(=S)NNC(=O)c1ccco1,AC50,[1],"14.1 µM [rising, single point]"
FC(F)(F)c1cnc(Oc2ccccc2-c2nnc(-c3ccc(Cl)cc3)o2)c(Cl)c1,AC50,[1],"12.6 µM [rising, partial curve]"
O=C(O)c1cc(O)c2c(c1)[O][Bi][O]2,AC50,[2],"0.01 µM [rising, full curve, poor fit]"
same,AC50,[1],"0.794 µM [rising, full curve]"
CC(C)CNS(=O)(=O)c1ccc(S(=O)(=O)N2CCC3(CC2)OCCO3)cc1,AC50,[1],"12.6 µM [rising, single point]"
CCN1CCN(C(c2cccc(OC)c2)c2c(O)cc(C)n(Cc3ccco3)c2=O)CC1 (configuration not stated),AC50,[1],"35.5 µM [rising, single point]"
CC(NC(=O)c1ccc(Cn2c(SCc3ccccc3)nc3cccnc32)cc1)c1ccccc1 (configuration not stated),AC50,[2],"0.02 µM [rising, full curve, poor fit]"
O=C(Nc1ccccc1C(F)(F)F)N1Cc2ccccc2Oc2ncccc21,AC50,[2],"0.2 µM [rising, partial curve, poor fit]"
Cn1cc(C(=O)c2ccc(Cl)cc2Cl)cc1C=O,AC50,[2],"0.0316 µM [falling, full curve, poor fit]"
Nc1ccn([C@@H]2CC[C@H](CO)O2)c(=O)n1,AC50,[1],"3.16 µM [falling, single point]"
COc1ccc(-n2cc(-c3ccccc3)nc2SC)cc1,AC50,[1],"12.6 µM [rising, single point]"
CCC1(O)CC2CN(CCc3c([nH]c4ccccc34)[C@@](C(=O)OC)(c3cc4c(cc3OC)N(C)C3[C@]45CCN4CC=C[C@@](CC)([C@@H](OC(C)=O)[C@]3(O)C(=O)OC)[C@H]45)C2)C1 (some centres not stated),AC50,[2],"0.178 µM [falling, full curve]"
same,AC50,[1],"0.178 µM [falling, full curve]"
O=[N+]([O-])c1ccc(OCc2cnc(Cl)s2)c([N+](=O)[O-])c1,AC50,[1],"7.08 µM [falling, full curve, poor fit]"
FC(F)(F)c1nnc(-c2ccccc2)nc1Oc1ccc(Cl)cc1Cl,AC50,[2],"35.5 µM [falling, single point]"
same,AC50,[1],"35.5 µM [falling, single point]"
Clc1ccc([C@H](Cn2ccnc2)OCc2csc3c(Cl)cccc23)c(Cl)c1,AC50,[1],"3.98 µM [rising, partial curve, poor fit]"
CCCCC(C)(O)C/C=C/[C@H]1[C@H](O)CC(=O)[C@@H]1CCCCCCC(=O)OC (some centres not stated),AC50,[2],"0.447 µM [falling, full curve, poor fit]"
same,AC50,[1],"22.4 µM [rising, single point] and 794 nM [rising, partial curve, poor fit]"
O=c1oc2c(CN3CCCCC3)c(O)ccc2c2c1CCCCC2,AC50,[1],"0.355 µM [rising, full curve, poor fit]"
Cc1cc(C(=O)Nc2ccc(Cl)cc2)c2c(C)nn(-c3ccccc3)c2n1,AC50,[2],"0.178 µM [falling, full curve, poor fit]"
same,AC50,[1],"0.398 µM [falling, full curve, poor fit]"

# Five entries drawn at random from those above:
compound,measurement,setting,value
O=C(COc1ncnc2ccccc12)Nc1ccc(Cl)c([N+](=O)[O-])c1,AC50,[1],"11.2 µM [rising, partial curve]"
COc1cc2c(cc1OC)C(c1ccc(-c3ccc(Cl)c(Cl)c3)o1)=NCC2,AC50,[1],"14.1 µM [falling, single point]"
O=S(=O)(NCCc1ccccc1F)c1cccc(S(=O)(=O)N2CCOCC2)c1,AC50,[1],"15.8 µM [rising, single point]"
CCCCC(C)(O)C/C=C/[C@H]1[C@H](O)CC(=O)[C@@H]1CCCCCCC(=O)OC (some centres not stated),AC50,[2],"0.447 µM [falling, full curve, poor fit]"
O=[N+]([O-])c1ccc(OCc2cnc(Cl)s2)c([N+](=O)[O-])c1,AC50,[1],"7.08 µM [falling, full curve, poor fit]"
